Test results from paper PMC4352707.
Where two headings read alike, the source gives them in different places. Results are given in words; binding and its absence hold for the method and conditions named. Binding seen in cells or lysates may run through a third protein. Some entries that bind do so weakly or less than the wild type. Sequences can lack the tags named with a protein.

Protein sequences, listed by entry. Tags and fused reporters are not part of them. Lines headed by an entry give the natural chain unless they say otherwise; changes in a name come on top.
UniProt Q93009: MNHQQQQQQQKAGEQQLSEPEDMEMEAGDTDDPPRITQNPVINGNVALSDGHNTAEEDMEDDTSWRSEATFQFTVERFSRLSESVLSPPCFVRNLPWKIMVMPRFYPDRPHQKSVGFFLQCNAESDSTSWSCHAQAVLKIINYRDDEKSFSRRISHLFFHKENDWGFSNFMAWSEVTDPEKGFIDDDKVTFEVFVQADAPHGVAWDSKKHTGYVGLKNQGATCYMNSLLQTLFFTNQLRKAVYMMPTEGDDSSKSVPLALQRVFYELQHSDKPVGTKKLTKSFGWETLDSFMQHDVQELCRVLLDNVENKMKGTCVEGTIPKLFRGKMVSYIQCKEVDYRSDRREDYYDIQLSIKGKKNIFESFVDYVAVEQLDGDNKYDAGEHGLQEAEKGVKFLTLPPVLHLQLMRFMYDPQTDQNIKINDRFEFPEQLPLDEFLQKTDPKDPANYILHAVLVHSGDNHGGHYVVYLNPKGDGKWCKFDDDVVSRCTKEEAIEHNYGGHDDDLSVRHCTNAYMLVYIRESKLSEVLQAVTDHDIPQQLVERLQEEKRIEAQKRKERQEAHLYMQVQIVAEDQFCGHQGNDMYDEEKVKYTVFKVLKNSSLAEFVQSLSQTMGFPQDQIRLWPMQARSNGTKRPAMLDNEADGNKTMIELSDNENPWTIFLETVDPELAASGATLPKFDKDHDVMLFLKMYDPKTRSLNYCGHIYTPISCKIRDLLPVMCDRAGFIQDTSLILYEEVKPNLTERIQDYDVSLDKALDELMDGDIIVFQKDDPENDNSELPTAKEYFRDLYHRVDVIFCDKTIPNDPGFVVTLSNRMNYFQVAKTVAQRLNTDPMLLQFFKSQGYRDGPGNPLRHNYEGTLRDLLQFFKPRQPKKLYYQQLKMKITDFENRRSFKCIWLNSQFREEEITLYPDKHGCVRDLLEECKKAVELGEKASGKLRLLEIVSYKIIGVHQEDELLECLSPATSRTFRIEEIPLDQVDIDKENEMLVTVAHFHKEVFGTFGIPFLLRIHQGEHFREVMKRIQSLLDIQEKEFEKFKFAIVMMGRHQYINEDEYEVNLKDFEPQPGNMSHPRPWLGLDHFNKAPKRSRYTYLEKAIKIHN

T1: FLAG-Cry1 (pcDNA3-2xFlag-mCRY1) (mouse) (UniProt P97784)
T1 sequence: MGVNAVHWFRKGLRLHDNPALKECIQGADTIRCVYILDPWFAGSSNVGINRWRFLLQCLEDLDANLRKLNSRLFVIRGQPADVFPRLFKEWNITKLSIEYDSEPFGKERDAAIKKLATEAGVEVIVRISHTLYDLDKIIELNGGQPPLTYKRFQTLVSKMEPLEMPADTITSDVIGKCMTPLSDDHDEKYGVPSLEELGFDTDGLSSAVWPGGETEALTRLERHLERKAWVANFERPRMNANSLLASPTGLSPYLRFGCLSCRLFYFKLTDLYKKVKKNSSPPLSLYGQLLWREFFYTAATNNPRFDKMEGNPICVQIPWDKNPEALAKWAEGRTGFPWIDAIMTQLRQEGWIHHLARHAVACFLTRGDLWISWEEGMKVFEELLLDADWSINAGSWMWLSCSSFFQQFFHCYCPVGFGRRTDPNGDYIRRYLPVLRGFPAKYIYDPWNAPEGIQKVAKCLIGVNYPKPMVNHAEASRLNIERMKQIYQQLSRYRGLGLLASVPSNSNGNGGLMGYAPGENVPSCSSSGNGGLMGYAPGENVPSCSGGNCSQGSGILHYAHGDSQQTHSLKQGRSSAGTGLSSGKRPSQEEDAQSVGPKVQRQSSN

T2: FLAG-Cry1 S588D (mouse) (UniProt P97784)
T2 sequence: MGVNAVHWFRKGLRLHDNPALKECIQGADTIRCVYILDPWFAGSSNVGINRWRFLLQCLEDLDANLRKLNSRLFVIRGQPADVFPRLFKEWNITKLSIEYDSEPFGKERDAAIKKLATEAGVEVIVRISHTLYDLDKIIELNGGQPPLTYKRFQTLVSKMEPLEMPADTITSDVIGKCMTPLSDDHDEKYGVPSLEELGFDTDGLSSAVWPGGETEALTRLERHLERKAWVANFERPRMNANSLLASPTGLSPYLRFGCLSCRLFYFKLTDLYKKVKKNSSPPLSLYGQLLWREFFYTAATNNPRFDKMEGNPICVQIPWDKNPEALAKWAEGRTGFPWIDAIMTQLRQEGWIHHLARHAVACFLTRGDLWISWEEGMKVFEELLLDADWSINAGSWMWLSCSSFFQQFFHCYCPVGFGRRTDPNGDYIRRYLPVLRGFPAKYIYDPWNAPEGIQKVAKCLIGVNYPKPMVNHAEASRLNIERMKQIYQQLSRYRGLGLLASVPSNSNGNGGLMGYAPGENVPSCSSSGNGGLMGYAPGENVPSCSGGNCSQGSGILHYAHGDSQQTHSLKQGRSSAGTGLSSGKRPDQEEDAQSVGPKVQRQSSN

T3: FLAG-Cry2 (pcDNA3-2xFlag-mCRY2) (mouse) (UniProt Q9R194)
T3 sequence: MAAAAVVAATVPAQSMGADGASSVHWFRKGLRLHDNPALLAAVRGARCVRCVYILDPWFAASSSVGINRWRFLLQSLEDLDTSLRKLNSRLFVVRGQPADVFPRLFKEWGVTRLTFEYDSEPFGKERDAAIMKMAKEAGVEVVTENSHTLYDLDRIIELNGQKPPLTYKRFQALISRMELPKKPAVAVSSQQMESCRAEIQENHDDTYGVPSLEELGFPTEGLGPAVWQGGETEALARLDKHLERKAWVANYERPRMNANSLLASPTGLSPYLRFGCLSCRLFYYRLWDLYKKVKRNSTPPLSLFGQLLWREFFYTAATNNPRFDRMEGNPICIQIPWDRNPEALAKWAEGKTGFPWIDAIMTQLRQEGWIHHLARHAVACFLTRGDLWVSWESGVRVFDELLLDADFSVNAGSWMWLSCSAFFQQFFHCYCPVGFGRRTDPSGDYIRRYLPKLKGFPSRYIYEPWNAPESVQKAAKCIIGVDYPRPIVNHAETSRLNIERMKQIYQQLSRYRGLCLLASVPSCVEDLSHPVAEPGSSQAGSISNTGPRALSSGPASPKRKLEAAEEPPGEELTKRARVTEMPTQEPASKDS


Key:
Experiment in all cases: co-IP; 293T cells transfected with FLAG-tagged Cry constructs and V5-tagged Hausp or Fbxl3 (calcium phosphate or PEI), lysis buffer with 1% TX-100, IP and immunoblot; untreated or treated with doxorubicin, irradiation or MG132
[1] = target: T1, FLAG-Cry1 (pcDNA3-2xFlag-mCRY1) (mouse)
FLAG-Cry1 S588D (mouse) [2] = target: T2, FLAG-Cry1 S588D (mouse)
[3] = target: T1, FLAG-Cry1 (pcDNA3-2xFlag-mCRY1) (mouse); remark: listed apart in the source
FLAG-Cry1 S588D (mouse) [4] = target: T2, FLAG-Cry1 S588D (mouse); remark: listed apart in the source
[5] = target: T3, FLAG-Cry2 (pcDNA3-2xFlag-mCRY2) (mouse)

binding [1] | binding (FLAG-Cry1 S588D (mouse) [2]) | binding [3] | binding (FLAG-Cry1 S588D (mouse) [4]) | binding [5] | Molecule
binds | binds |  |  |  | Hausp-V5 (from UniProt Q93009 1-1102) (enzyme)
 |  | binds | binds | binds | Fbxl3-V5 (pcDNA3-Fbxl3-v5) (protein, UniProt Q8C4V4 1-428) MKRGGRDSDQDSAEEGTAEKPKRPRTTQERSQPCDWGNLLQDIVLHVFKYLPLLDRAHASQVCRNWNQVFHMPDLWRCFEFELNQPATSYLKATHPELIKQIIKRHSNHLQYVSFKVDSSKESAEAACDILSQLVNCSLKTLGLISTARPSFMDLPKSHFISALTVVFVNSKSLSSLKIDDTPVDDPSLKVLVANNSDTLKLLKMSSCPHVSPAGILCVADQCHGLRELALNYHLLSDELLLALSSEKHVRLEHLRIDVVSENPGQTHFHTIQKSSWDAFIKHSPKVNLVMYFFLYEEEFDPFFRYEIPATHLYFGRSVSKDVLGRVGMTCPRLVELVVCANGLRPLDEELIRIAERCKNLSAIGLGECEVSCSAFVEFVKMCGGRLSQLSIMEEVLIPDQKYSLEQIHWEVSKHLGRVWFPDMMPTW

More lines, now with the values behind:

Molecule | binding [1] | binding (FLAG-Cry1 S588D (mouse) [2]) | binding [3] | binding (FLAG-Cry1 S588D (mouse) [4]) | binding [5]
Hausp S18A (V5-tagged) (from UniProt Q93009 1-1102) (enzyme) | binds |  |  |  | 
Hausp S18D (V5-tagged) (from UniProt Q93009 1-1102) (enzyme) | binds |  |  |  | 
